Reference: paper PMC12752551
These are yes or no findings as the source states them, for the method shown. Some results given as binding are weak or reduced against the parent protein; the word gives no strength. Sequences can lack the tags named with a protein.

Columns and labels:
GST-RFWD3, recombinant = target: T1, GST-RFWD3, recombinant (UniProt Q6PCD5); assay: pull-down; GST or GST-RFWD3 (15 µg) on Glutathione Sepharose 4B 5 h at 4 °C, then His-TREX1 at 4 °C overnight; washed four times; western blot; both purified
T1 sequence: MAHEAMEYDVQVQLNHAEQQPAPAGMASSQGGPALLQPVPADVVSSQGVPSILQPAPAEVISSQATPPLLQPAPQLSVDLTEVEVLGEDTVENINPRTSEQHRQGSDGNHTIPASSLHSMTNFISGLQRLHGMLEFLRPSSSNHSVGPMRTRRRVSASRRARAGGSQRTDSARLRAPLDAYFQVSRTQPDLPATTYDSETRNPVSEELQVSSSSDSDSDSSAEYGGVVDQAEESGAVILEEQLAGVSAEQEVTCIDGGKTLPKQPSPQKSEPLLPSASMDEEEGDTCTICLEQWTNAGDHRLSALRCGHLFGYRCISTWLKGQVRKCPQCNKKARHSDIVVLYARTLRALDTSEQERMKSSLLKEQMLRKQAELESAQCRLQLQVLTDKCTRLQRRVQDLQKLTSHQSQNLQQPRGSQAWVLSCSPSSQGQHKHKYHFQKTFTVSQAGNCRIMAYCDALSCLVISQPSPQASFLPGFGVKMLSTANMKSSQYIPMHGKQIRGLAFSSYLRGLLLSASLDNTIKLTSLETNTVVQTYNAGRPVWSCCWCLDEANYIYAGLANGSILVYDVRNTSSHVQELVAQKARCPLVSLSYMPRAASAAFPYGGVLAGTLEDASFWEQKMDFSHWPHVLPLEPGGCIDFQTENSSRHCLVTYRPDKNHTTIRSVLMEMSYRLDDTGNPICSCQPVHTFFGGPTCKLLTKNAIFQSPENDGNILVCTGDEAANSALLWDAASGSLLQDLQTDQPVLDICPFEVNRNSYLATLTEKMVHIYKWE

GST-TRIM24, recombinant = target: T2, GST-TRIM24, recombinant (UniProt O15164); assay: ELISA; competition ELISA: plates coated with recombinant GST-TRIM24 (0.5 µg/mL), incubated with recombinant His-TREX1 (3 µg/mL) and different concentrations of RFWD3 protein; HRP-conjugated anti-His tag antibody; both purified
T2 sequence: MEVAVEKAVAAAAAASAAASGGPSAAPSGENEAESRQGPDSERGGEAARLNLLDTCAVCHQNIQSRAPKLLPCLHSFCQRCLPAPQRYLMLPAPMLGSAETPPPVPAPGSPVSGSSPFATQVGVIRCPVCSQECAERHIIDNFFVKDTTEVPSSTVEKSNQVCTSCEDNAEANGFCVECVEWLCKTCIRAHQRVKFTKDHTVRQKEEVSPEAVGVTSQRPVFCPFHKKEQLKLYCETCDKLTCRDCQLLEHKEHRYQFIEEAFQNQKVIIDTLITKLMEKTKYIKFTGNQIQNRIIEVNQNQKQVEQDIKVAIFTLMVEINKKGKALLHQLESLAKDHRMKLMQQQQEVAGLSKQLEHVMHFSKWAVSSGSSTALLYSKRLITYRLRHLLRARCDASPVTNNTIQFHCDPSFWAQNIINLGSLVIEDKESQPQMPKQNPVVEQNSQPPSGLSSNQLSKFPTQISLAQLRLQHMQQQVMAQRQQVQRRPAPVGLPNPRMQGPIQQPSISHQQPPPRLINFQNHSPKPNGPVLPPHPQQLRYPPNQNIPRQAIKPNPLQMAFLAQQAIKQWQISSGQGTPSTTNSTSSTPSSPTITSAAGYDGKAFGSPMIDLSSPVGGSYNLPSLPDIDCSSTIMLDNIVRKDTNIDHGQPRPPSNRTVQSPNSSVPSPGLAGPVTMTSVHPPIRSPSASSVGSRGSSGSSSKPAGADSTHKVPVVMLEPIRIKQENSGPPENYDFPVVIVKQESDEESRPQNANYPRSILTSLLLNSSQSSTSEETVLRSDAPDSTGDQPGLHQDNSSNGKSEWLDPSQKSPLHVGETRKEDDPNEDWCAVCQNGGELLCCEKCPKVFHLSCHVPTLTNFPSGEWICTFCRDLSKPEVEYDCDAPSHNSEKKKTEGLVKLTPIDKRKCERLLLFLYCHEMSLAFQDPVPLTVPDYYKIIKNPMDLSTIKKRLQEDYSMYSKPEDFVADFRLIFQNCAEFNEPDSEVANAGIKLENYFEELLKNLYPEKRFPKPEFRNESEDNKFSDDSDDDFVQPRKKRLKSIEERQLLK

binding (GST-RFWD3, recombinant): binds
binding (GST-TRIM24, recombinant): binds
B1: His-TREX1 (1-314 aa), recombinant (protein, UniProt Q9NSU2-3 1-314)
chain: MGSQALPPGPMQTLIFFDMEATGLPFSQPKVTELCLLAVHRCALESPPTSQGPPPTVPPPPRVVDKLSLCVAPGKACSPAASEITGLSTAVLAAHGRQCFDDNLANLLLAFLRRQPQPWCLVAHNGDRYDFPLLQAELAMLGLTSALDGAFCVDSITALKALERASSPSEHGPRKSYSLGSIYTRLYGQSPPDSHTAEGDVLALLSICQWRPQALLRWVDAHARPFGTIRPMYGVTASARTKPRPSAVTTTAHLATTRNTSPSLGESRGTKDLPPVKDPGALSREGLLAPLGLLAILTLAVATLYGLSLATPGE
